Source: PubChem BioAssay AID493014 (National Center for Advancing Translational Sciences (NCATS), 2011)
Some of the results follow. These are further read-outs of the screen, such as a control signal, another cell line or another target. No call is given for them. Most of these compounds were active or inconclusive in the main read-out, so they are no random draw. The note in brackets gives the kind of curve behind each potency; many fits are weak.

Experiment: qHTS Assay to Find Inhibitors of Chronic Active B-Cell Receptor Signaling
Conditions: ABC-DLBCL IkBa-CBG/CBR reporter, luminescence ratio (green luciferase fused to IkBa over red control in TMD8 lymphoma cells), 4 h
Summary of the method: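 Cell line TMD8 (human ABC DLBCL), stably expressing tet-inducible CBG68-IkBa fusion and CBR; IMDM/0.5% FBS; cpd up to 46 uM; dox induction, 4 h, 37C/5% CO2; dual luminescence; green/red ratio; MG132 control.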

[1] = measured here: CBR red luminescence, cell number
[2] = measured here: IkBa-CBG green luminescence

Compound	AC50 [1]	AC50 [2]
O=C(CSc1ncnc2c1cnn2-c1ccccc1)NC1CCS(=O)(=O)C1 (stereo unspecified)	11.6 µM [falling, partial curve, poor fit]	
O=C(CNc1ccc(Br)cc1)c1ccccc1	1.41 µM [rising, partial curve]	
COC(=O)c1sccc1-c1ccc(C(=O)Nc2ccccc2)o1	5.62 µM [falling, partial curve, poor fit]	
COc1ccc(CCNC(=O)C(=O)NCC2OCCN2S(=O)(=O)c2ccc(C)cc2)cc1OC (stereo unspecified)	8.91 µM [falling, partial curve]	
CSc1nc2nc3c(c(=O)n2[nH]1)CN(Cc1ccccc1)CC3	2 µM [falling, partial curve, poor fit]	
CCN(CC)C(=O)CSc1nnc(-c2cccnc2)n1CCc1ccccc1	2.24 µM [falling, partial curve, poor fit]	
Cn1cccc1C(=O)Nc1nc(-c2ccccn2)cs1	17.8 µM [falling, partial curve, poor fit]	
COc1ccc(N2C(=O)C3C(C2=O)C(C(=O)c2ccccc2)N2CCCC32)cc1 (stereo unspecified)	20 µM [falling, partial curve]	
CCCCNS(=O)(=O)c1ccc2nc(SCC(N)=O)[nH]c2c1	10 µM [rising, partial curve, poor fit]	
O=C(ONC1=NCCCCC1)c1ccc([N+](=O)[O-])cc1	12.6 µM [rising, partial curve, poor fit]	
Cc1ccc2nc(NC(=O)Cn3cc4c(n3)CCCCC4)sc2c1	18.4 µM [falling, single point]	
COc1ccc(C(CC(=O)N2CCCC2)C(C)C)cc1 (stereo unspecified)	3.16 µM [falling, full curve, poor fit]	
COc1ccc(C(=O)Nc2nnc(CC(=O)N/N=C/c3ccc(O)cc3O)s2)cc1	3.98 µM [falling, partial curve]	20 µM [rising, partial curve, poor fit]
O=c1ccc(Oc2nc(N3CCOCC3)nc(N3CCOCC3)n2)nn1-c1ccccc1	3.26 µM [falling, partial curve, poor fit]	
Cc1ccc(-c2ccc(/C=N/NC(N)=S)o2)cc1		17.8 µM [falling, partial curve]
O=C(Nc1ccccc1F)c1ccn[nH]1	5.62 µM [falling, partial curve, poor fit]	
Cc1cc(N2CCN(c3ccccc3)CC2)n2nnnc2n1	2.91 µM [rising, partial curve, poor fit]	
CCNc1nc(NCC)nc(SCCOC(=O)Nc2ccccc2)n1	9.2 µM [rising, partial curve, poor fit]	
O=C(/C=C/c1cc(Br)ccc1O)c1ccco1	15.8 µM [falling, partial curve, poor fit]	
CCCc1[nH]nc2c1C(c1ccc(Br)s1)C(C#N)=C(N)O2 (stereo unspecified)	1.64 µM [falling, full curve, poor fit]	
CCc1ccc(NC(=O)N2CCN(c3ccccc3)CC2)cc1	8.91 µM [rising, partial curve, poor fit]	
c1cc2cc(-c3c(-c4ccc5c(c4)OCO5)noc3-c3ccsc3)ccc2[nH]1	35.5 µM [rising, single point]	10 µM [rising, partial curve, poor fit]

Compound	AC50 [1]	AC50 [2]
CCNc1nc(N)nc(-c2cc(Cl)ccc2O)n1	10.3 µM [falling, partial curve]	
COc1ccc(C(=O)CN2CCN(c3ccc(F)cc3)CC2)cc1	28.2 µM [falling, partial curve, poor fit]	
CCn1c(=O)cc(OCC(=O)N2CCCC2)c2ccccc21	4.11 µM [rising, full curve, poor fit]	
O=C(O)c1cccc(-n2cc(-c3cccc(C(F)(F)F)c3)cn2)c1	10 µM [falling, partial curve]	
COc1ccc(-c2ccc(C(=O)C3CC3)cc2)cc1	3.16 µM [rising, full curve, poor fit]	
CCOC(=O)c1c(-c2ccccc2)nnn1-c1nc(OCC)nc(N2CCCCC2)n1	0.00651 µM [rising, full curve, poor fit]	
CCCn1c(C2CCCN2c2nc(-c3ccc(OC)cc3)cs2)nc2ccccc21 (stereo unspecified)	12.6 µM [falling, single point]	
CC(C)(C)C1CCC(=NNc2ncc(C(F)(F)F)cc2Cl)CC1 (stereo unspecified)	0.058 µM [rising, full curve, poor fit]	
C/C(=N/NC(=O)c1ccc(Cl)s1)c1cccnc1	7.94 µM [falling, partial curve, poor fit]	
CN(C)Cc1ccc(F)cc1Sc1ccc(Cl)cc1Cl	29.1 µM [rising, single point]	
CC(=O)c1cccc(NC(=O)COC(=O)C2CCCN2C(=O)c2cccs2)c1 (stereo unspecified)	23.1 µM [rising, partial curve, poor fit]	
CCCCNC(=O)Nc1ccccc1C(=O)NCc1ccco1	0.282 µM [rising, full curve, poor fit]	
O=C(COC(=O)c1cccnc1Nc1cccc(C(F)(F)F)c1)NC1CCS(=O)(=O)C1 (stereo unspecified)	8.2 µM [falling, single point]	
Cc1cccc(C(=O)NN2S(=O)(=O)c3ccccc3S2(=O)=O)c1	10 µM [falling, partial curve]	
Nc1cc(Cl)ccc1Oc1ccc(Cl)cc1	35.5 µM [rising, single point]	
COc1cccc(NC(=O)C2CCCN(S(=O)(=O)c3cccc4nsnc34)C2)c1 (stereo unspecified)	0.731 µM [falling, full curve, poor fit]	
COc1cc(-c2cc(C(=O)Nc3ccc(N4CCOCC4)cc3)c3ccccc3n2)cc(OC)c1OC	3.55 µM [rising, partial curve, poor fit]	
Nc1c2c(nc3sc4c(c13)CCCCC4)CCCCC2	0.58 µM [rising, full curve, poor fit]	
CN(Cc1ccccc1)C(=O)c1nc[nH]c1C(=O)N1CCN(c2ccccc2)CC1	1.03 µM [rising, full curve]	
Cc1ccc(C)c(S(=O)(=O)N(C)Cc2cccs2)c1	6.51 µM [rising, single point]	
COc1ccc(-c2nnc(-c3ccccc3)o2)cc1OC	17.8 µM [falling, single point]	
CC(=O)Nc1cccc(-c2csc(NCc3ccccc3)n2)c1	0.1 µM [rising, full curve, poor fit]	

Compound	AC50 [1]	AC50 [2]
CCNc1nc(NCC)nc(N(C#N)CCOc2ccccc2)n1	0.631 µM [rising, full curve, poor fit]	
COc1cc(/C=C/C(=O)c2ccc(C)cc2)ccc1OCC#N	14.6 µM [falling, partial curve, poor fit]	
O=C(CSc1nncc2ccccc12)N1CCCCC1	11.2 µM [falling, partial curve, poor fit]	
COc1cccc(C(=O)/C=C/Nc2ccc(S(=O)(=O)Nc3ccc(C(C)=O)cc3)cc2)c1	29.1 µM [falling, single point]	
COc1ccccc1N1CCN(c2ncnc3c2c(-c2ccccc2)cn3-c2cccc(C)c2)CC1	0.282 µM [rising, partial curve, poor fit]	
COc1ccc(C(=O)Nc2ccc(-c3n[nH]c(=S)o3)cc2)cc1OC	3.16 µM [rising, single point]	
O=C(NNC(=O)c1ccccc1O)c1ccc(S(=O)(=O)Nc2ccccc2F)cc1	29.1 µM [falling, single point]	
COCC(=O)Nc1ccc(N2CCOCC2)c(S(=O)(=O)Nc2ccccc2OC)c1	2.59 µM [rising, single point]	
Cc1ccc(N2CCN(S(=O)(=O)c3c(C)nc4scc(C)n4c3=O)CC2)c(C)c1	17.8 µM [rising, single point]	
O=C(O)C1C2C=CC(C2)C1C(=O)NCCc1cccc(Cl)c1 (stereo unspecified)	8.2 µM [falling, partial curve, poor fit]	
COc1ccc(C(=O)C[n+]2cc(-c3ccc(OC)cc3)n3c2CCCC3)cc1	35.5 µM [falling, single point]	
CC(C)c1nn2c(N)c(/C=C3\C=Nc4ccccc43)c(=O)nc2s1	0.891 µM [rising, full curve, poor fit]	
CCCCOC(=O)n1c(SCC(=O)N(C)C)nc2ccccc21	0.224 µM [falling, full curve, poor fit]	
Cc1ccc(OCc2nc(-c3ccccn3)n[nH]2)cc1	20.6 µM [falling, single point]	
Cc1ccccc1OCC(=O)Nc1ccc(C)c(S(=O)(=O)N2CCCCCC2)c1	20.6 µM [falling, single point]	
Cc1nc2sc(C(c3cccc(F)c3)N3CCN(C(=O)c4ccco4)CC3)c(O)n2n1 (stereo unspecified)	3.66 µM [rising, full curve, poor fit]	
O=S(=O)(CCSc1nc2ccccc2o1)Cc1ccccc1	6.51 µM [rising, single point]	
O=C(N/N=C1\CCCc2ccccc21)c1cccc(Br)c1	22.4 µM [falling, single point]	
O=C(Nc1nnc(-c2ccccc2)o1)c1cccc(N2C(=O)CCC2=O)c1	20.6 µM [falling, single point]	
O=C(O)Cc1csc(-c2ccccc2)n1	11.2 µM [rising, partial curve, poor fit]	

A few values from the entries so far.
Value of O=C(CSc1nncc2ccccc12)N1CCCCC1 under AC50 [1]: 11.2 µM [falling, partial curve, poor fit]
Value of O=C(Nc1nnc(-c2ccccc2)o1)c1cccc(N2C(=O)CCC2=O)c1 under AC50 [1]: 20.6 µM [falling, single point]
Value of COc1cc(/C=C/C(=O)c2ccc(C)cc2)ccc1OCC#N under AC50 [1]: 14.6 µM [falling, partial curve, poor fit]
Value of O=S(=O)(CCSc1nc2ccccc2o1)Cc1ccccc1 under AC50 [1]: 6.51 µM [rising, single point]
